In patent US8338472B2, “Hexahydrocyclopentyl[F]indazole carboxamides and derivatives thereof as selective glucocorticoid receptor modulators” (Merck Sharp & Dohme Corp., priority 2008, dated 2012):
Some entries share one result that the patent states for a list of compounds.

target: T1, glucocorticoid receptor (GR) (Homo sapiens, UniProt P04150); experiment: Ligand binding assay (GR BIND), 3H-dexamethasone displacement in MDA-MB-453 cell lysate; details: read-out: IC50 in the ligand binding assay; DEX as a reference
T1 sequence (P04150 1-777): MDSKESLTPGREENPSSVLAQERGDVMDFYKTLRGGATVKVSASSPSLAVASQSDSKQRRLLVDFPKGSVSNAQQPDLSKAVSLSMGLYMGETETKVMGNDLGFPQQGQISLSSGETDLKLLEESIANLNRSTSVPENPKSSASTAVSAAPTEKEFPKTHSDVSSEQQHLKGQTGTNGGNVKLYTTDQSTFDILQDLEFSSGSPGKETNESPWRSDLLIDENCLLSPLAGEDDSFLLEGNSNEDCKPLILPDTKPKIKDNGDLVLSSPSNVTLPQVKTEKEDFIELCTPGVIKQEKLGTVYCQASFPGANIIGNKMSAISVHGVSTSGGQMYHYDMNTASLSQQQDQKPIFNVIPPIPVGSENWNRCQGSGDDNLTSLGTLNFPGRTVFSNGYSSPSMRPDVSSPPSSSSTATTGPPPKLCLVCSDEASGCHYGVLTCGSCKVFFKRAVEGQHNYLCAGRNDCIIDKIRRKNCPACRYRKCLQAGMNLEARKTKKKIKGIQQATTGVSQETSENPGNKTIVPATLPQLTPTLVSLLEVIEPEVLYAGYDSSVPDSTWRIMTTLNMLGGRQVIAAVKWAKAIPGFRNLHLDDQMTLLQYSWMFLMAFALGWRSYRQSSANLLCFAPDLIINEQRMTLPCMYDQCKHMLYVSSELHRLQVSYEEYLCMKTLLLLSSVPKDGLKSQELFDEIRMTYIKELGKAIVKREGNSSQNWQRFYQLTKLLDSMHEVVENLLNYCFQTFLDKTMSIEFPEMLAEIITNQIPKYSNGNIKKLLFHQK

IC50, < 1000 nM:
C[C@]12Cc3cnn(-c4ccc(F)cc4)c3C=C1CC[C@@H]2C(=O)N1CCC(C(F)(F)F)CC1 [Compound 42, (4αR,5S)-1-(4-fluorophenyl)-4α-methyl-5-{[4-(trifluoromethyl)piperidin-1-yl]carbonyl}-1,4,4α,5,6,7-hexahydrocyclopenta[f]indazole]
COC[C@H]1CCCN1C(=O)[C@H]1CCC2=Cc3c(cnn3-c3ccc(F)cc3)C[C@@]21C [Compound 43, (4αR,5S)-1-(4-fluorophenyl)-5-{[(2R)-2-(methoxymethyl)pyrrolidin-1-yl]carbonyl}-4α-methyl-1,4,4α,5,6,7-hexahydrocyclopenta[f]indazole]
CN(C(=O)[C@H]1CCC2=Cc3c(cnn3-c3ccc(F)cc3)C[C@@]21C)C1CCCCC1 [Compound 44, (4αR,5S)-N-cyclohexyl-1-(4-fluorophenyl)-N,4α-dimethyl-1,4,4α,5,6,7-hexahydrocyclopenta[f]indazole-5-carboxamide]
COCCN(Cc1ccc(OC)cc1)C(=O)[C@H]1CCC2=Cc3c(cnn3-c3ccc(F)cc3)C[C@@]21C [Compound 45, (4αR,5S)-1-(4-fluorophenyl)-N-(4-methoxybenzyl)-N-(2-methoxyethyl)-4α-methyl-1,4,4α,5,6,7-hexahydrocyclopenta[f]indazole-5-carboxamide]
CN(Cc1cccc(C(F)(F)F)c1)C(=O)[C@H]1CCC2=Cc3c(cnn3-c3ccc(F)cc3)C[C@@]21C [Compound 46, (4αR,5S)-1-(4-fluorophenyl)-N,4α-dimethyl-N-[3-(trifluoromethyl)benzyl]-1,4,4α,5 ,6,7-hexahydrocyclopenta[f]indazole-5-carboxamide]
COc1cccc(CN(C)C(=O)[C@H]2CCC3=Cc4c(cnn4-c4ccc(F)cc4)C[C@@]32C)c1 [Compound 47, (4αR,5S)-1-(4-fluorophenyl)-N-(3-methoxybenzyl)-N,4α-dimethyl-1,4,4α,5,6,7-hexahydrocyclopenta[f]indazole-5-carboxamide]
CN(CCOc1ccccc1)C(=O)[C@H]1CCC2=Cc3c(cnn3-c3ccc(F)cc3)C[C@@]21C [Compound 48, (4αR,5S)-1-(4-fluorophenyl)-N,4α-dimethyl-N-(2-phenoxyethyl)-1,4,4α,5,6,7-hexahydrocyclopenta[f] indazole-5-carboxamide]
C[C@]12Cc3cnn(-c4ccc(F)cc4)c3C=C1CC[C@@H]2C(=O)N(CCc1ccccc1)Cc1ccccc1 [Compound 49, (4αR,5S)-N-benzyl-1-(4-fluorophenyl)-4α-methyl-N-(2-phenylethyl)-1,4,4,5,6,7-hexahydrocyclopenta[f]indazole-5-carboxamide]
COc1ccccc1CN(C)C(=O)[C@H]1CCC2=Cc3c(cnn3-c3ccc(F)cc3)C[C@@]21C [Compound 50, (4αR,5S)-1-{4-fluorophenyl)-N-(2-methoxybenzyl)-N,4α-dimethyl-hexahydrocyclopenta[f]indazole-5-carboxamide]
C[C@]12Cc3cnn(-c4ccc(F)cc4)c3C=C1CC[C@@H]2C(=O)N1CCC(S(=O)(=O)c2ccccc2)CC1 [Compound 51, (4αR,5S)-1-(4-fluorophenyl)-4α-methyl-5-{[4-(phenylsulfonyl)piperidin-1-yl]carbonyl}1,4,4α,5,6,7-hexahydrocyclopenta[f]indazole]
CCN(Cc1ccccc1)C(=O)[C@H]1CCC2=Cc3c(cnn3-c3ccc(F)cc3)C[C@@]21C [Compound 52, (4αR,5S}-N-benzyl-N-ethyl-1-(4-fluorophenyl)-4α-methyl-1,4,4α,5,6,7-hexahydrocyclopenta[f]indazole-5-carboxamide]
CC1CC(C)CN(C(=O)[C@H]2CCC3=Cc4c(cnn4-c4ccc(F)cc4)C[C@@]32C)C1 (stereo partly drawn) [Compound 53, (4αR,5S)-5-[(3,5-dimethylpiperidin-1-yl)carbonyl]-1-(4-fluorophenyl)-4α-methyl-1,4,4α,5,6,7-hexahydrocyclopenta[f]indazole]
CC(C)CN(C)C(=O)[C@H]1CCC2=Cc3c(cnn3-c3ccc(F)cc3)C[C@@]21C [Compound 54, (4αR,5S)-1-(4-fluorophenyl)-N-isobutyl-N,4α-dimethyl-1,4,4α,5,6,7-hexahydrocyclopenta[f]indazole-5-carboxamide]
CCN(CC)C(=O)[C@H]1CCC2=Cc3c(cnn3-c3ccc(F)cc3)C[C@@]21C [Compound 55, (4αR,5S)-N,N-diethyl-1-(4-fluorophenyl)-4α-methyl-1,4,4α,5,6,7-hexahydrocyclopenta[f]indazole-5-carboxamide]
CCCCN(CCC)C(=O)[C@H]1CCC2=Cc3c(cnn3-c3ccc(F)cc3)C[C@@]21C [Compound 56, (4αR,5S)-N-butyl-1-{4-fluorophenyl)-4α-methyl-N-propyl-1,4,4α,5,6,7-hexahydrocyclopenta[f]indazole-5-carboxamide]
CC(C)CN(CC(O)C(F)(F)F)C(=O)[C@H]1CCC2=Cc3c(cnn3-c3ccc(F)cc3)C[C@@]21C (stereo partly drawn) [Compound 58, (4αR,5S)-1-(4-fluorophenyl)-N-isobutyl-4α-methyl-N-(3,3,3-trifluoro-2-hydroxypropyl)-1,4,4α,5,6,7-hexahydrocyclopenta[f]indazole-5-carboxamide]
C[C@]12Cc3cnn(-c4ccc(F)cc4)c3C=C1CC[C@@H]2C(=O)N(Cc1ccccc1F)CC(O)C(F)(F)F (stereo partly drawn) [Compound 59, (4αR,5S)-N-(2-fluorobenzyl)-1-(4-fluorophenyl)-4α-methyl-N-(3,3,3-trifluoro-2-hydroxypropyl)-1,4,4α,5,6,7-hexahydrocyclopenta[f]indazole-5-carboxamide]
C[C@]12Cc3cnn(-c4ccc(F)cc4)c3C=C1CC[C@@H]2C(=O)N(CCO)CC(O)C(F)(F)F (stereo partly drawn) [Compound 60, (4αR,5S)-1-(4-fluorophenyl)-N-(2-hydroxyethyl)-4α-methyl-N-(3,3,3-trifluoro-2-hydroxypropyl)-1,4,4α,5,6,7-hexahydrocyclopenta[f]indazole-5-carboxamide]
CCCN(CC(O)C(F)(F)F)C(=O)[C@H]1CCC2=Cc3c(cnn3-c3ccc(F)cc3)C[C@@]21C (stereo partly drawn) [Compound 61, (4αR,5S)-1-(4-fluorophenyl)-4α-methyl-N-propyl-N-(3,3,3-trifluoro-2-hydroxypropyl)-1,4,4α,5,6,7-hexahydrocyclopenta[f]indazole-5-carboxamide]
CCCN(CC1CCCO1)C(=O)[C@H]1CCC2=Cc3c(cnn3-c3ccc(F)cc3)C[C@@]21C (stereo partly drawn) [Compound 62, (4αR,5S)-1-(4-fluorophenyl)-4α-methyl-N-propyl-N-(tetrahydrofuran-2-ylmethyl)-1,4,4α,5,6,7-hexahydrocyclopenta[f]indazole-5-carboxamide]
C[C@]12Cc3cnn(-c4ccc(F)cc4)c3C=C1CC[C@@H]2C(=O)N(CC1CCC1)CC1CCCO1 (stereo partly drawn) [Compound 64, (4αR,5S)-N-(cyclobutylmethyl)-1-(4-fluorophenyl)-4α-methyl-N-(tetrahydrofuran-2-ylmethyl)-1,4,4α,5,6,7-hexahydrocyclopenta[f]indazole-5-carboxamide]
CCCN(C[C@H](C)O)C(=O)[C@H]1CCC2=Cc3c(cnn3-c3ccc(F)cc3)C[C@@]21C [Compound 65, (4αR,5S)-1-4-(4-fluorophenyl)-N-[(2S)-2-hydroxypropyl]-4α-methyl-N-propyl-1,4,4α,5,6,7-hexahydrocyclopenta[f]indazole-5-carboxamide]
CC(C)CN(C[C@H](C)O)C(=O)[C@H]1CCC2=Cc3c(cnn3-c3ccc(F)cc3)C[C@@]21C [Compound 66, (4αR,5S)-1-(4-fluorophenyl)-N-[(2S)-2-hydroxypropyl]-N-isobutyl-4α-methyl-1,4,4α,5,6,7-hexahydrocyclopenta[f]indazole-5-carboxamide]
CC(C)CN(C[C@@H](C)O)C(=O)[C@H]1CCC2=Cc3c(cnn3-c3ccc(F)cc3)C[C@@]21C [Compound 67, (4αR,5S)-1-(4-fluorophenyl)-N-[(2R)-2-hydroxypropyl]-N-isobutyl-4α-methyl-1,4,4α,5,6,7-hexahydrocyclopenta[f]indazole-5-carboxamide]
C[C@]12Cc3cnn(-c4ccc(F)cc4)c3C=C1CC[C@@H]2C(=O)N(CCO)c1ccccc1 [Compound 68, (4αR,5S)-1-(4-fluorophenyl)-N-(2-hydroxyethyl)-4α-methyl-N-phenyl-1,4,4α,5,6,7-hexahydrocyclopenta[f]indazole-5-carboxamide]
C[C@H](O)CN(CCc1ccccc1F)C(=O)[C@H]1CCC2=Cc3c(cnn3-c3ccc(F)cc3)C[C@@]21C [Compound 69, (4αR,5S)-1-(4-fluorophenyl)-N-[2-(2-fluorophenyl)ethyl]-N-[(2S)-2-hydroxypropyl]-4α-methyl-1,4,4α,5,6,7-hexahydrocyclopenta[f]indazole-5-carboxamide]
